Laboratory results: patent US6284789A, “Formation and composition of new optically active compounds” (The Research Foundation of State University of New York, priority 1999, dated 2001)
At least one compound was matched to its structure with a doubt left.

System: standard panel of 12 human tumor cell lines
Assay: Hollow fiber assay, preliminary in vivo testing
Design: species or system human tumor cell lines in mice
Conditions: MTT assay of fibers, compared with time 0 cell mass
Method: Preliminary in vivo testing was conducted by the hollow fiber assay on the oxabicyclooctane and the dioxatricyclodecanes identified as sufficiently active in the large scale in vitro cell screens. Each compound is tested against a standard panel of 12 human tumor cell lines, including NCI-H23, […], MDA-MB-231, MDA-MB-435, SW-620, COLO 205, LOX IMVI, UACC-62, OVCAR-3, OVCAR-5, U251, and SF-295. The cell lines are cultivated in RPMI-1640 containing 10% FBS and 2 mM glutamine. On the day preceding hollow fiber preparation, the cells are given a supplementation of fresh medium to maintain log phase growth. […] On the day of implantation, samples of each tumor cell line is quantitated for viable cell mass by a stable endpoint MTT assay so that the time 0 cell mass is known. Thus, the cytostatic and cytocidal capacities of the test compound can be assessed. […] Each agent is assessed by intraperitoneal injection at 2 dose levels with 3 mice/dose/experiment. […] The optical density of each sample is determined spectropphotomnetrically at 540 nm and the mean of each treatment group is calculated. The percent net cell growth in each treatment group is calculated and compared to the percent net cell growth in the vehicle treated controls. Each compound is assessed in a total of 4 experiments (3 cell lines/experiment×4 experiments=12 cell lines). […]

`COc1cc([C@]23OC[C@H](Cc4cc5c(cc42)OCO5)[C@@H]3CO)cc(OC)c1OC` [oxabicyclooctane] was tested. Which “Cytocidal capacity, hollow fiber assay” value did it give?
The value was “cyticidal”.
